Reference: US20100138945A1 (FEMTA PHARMACEUTICALS, published 2010)
Positions count from the first letter of the chain named. Results are given in words; binding and its absence hold for the method and conditions named. Binding can be weak; no strength is given.

B1: Anti-IL-6 Ab BA399 (antibody, V domains shown)
VH: QVQLVQSGAEVKKPGASVKVSCKASGFTFSSFAMSWIRQSPSRGLEWLGEISSGGSYTYYPDTVTGRFTISRDNAKNSLYLQMNSLRAEDTAVYYCARGLWGYYALDYWGQG
VL: AIQLTQSPSSLSASVGDRVTITCSASSSVSYMYWYQQKPGQAPRLLIYDTSNLASGIPPRFSGSGYGTDFTLTINNIESEDAAYYFCQQWSGYPYTFGQG
B2: Clone BA399-02 (antibody, V domains shown)
VH: B1 VH with A33S, V64K, L100Q
VL: B1 VL with S24Y
notes: also called BA399-2; BA399 clone #2
B3: Clone BA399-09 (antibody, V domains shown)
VH: B1 VH with A33S, T58H, L100Q
VL: B1 VL with S24Y, S51L
notes: also called BA399-9; BA399 clone #9

What follows are binders tested against monkey IL-6 (monkey) (assay: competition ELISA on captured monkey IL-6; competitor of biotinylated 001).
For B1, the binding was “binds”.
With B2 the binding was “binds”.
With B3 the binding was “binds”.

These binders were tested against monkey IL-6 (monkey) (assay: competition ELISA on captured monkey IL-6: unlabelled antibody added with biotinylated 001 (BA001), streptavidin-HRP).
With B1 the binding was “binds”.
B2 was tested, and the binding was “binds”.
In the case of B3, the binding is reported as “binds”.
